Experimental data published in patent US8252764B2, “Compositions and methods of use of targeting peptides against placenta and adipose tissues” (priority 2000, dated 2012).
At least one peptide structure holds a part that was inferred or is arguable (an end, a ring closure or a residue). Bridge positions count the residues as written; N and C are the ends. Square brackets hold non-standard residues; d marks the D form. Peptide text beside a SMILES is read from it.

Target: T1, prohibition receptor protein complex (Mus musculus, UniProt P67778)
T1 construct: from tissue; host or cells: mouse adipose tissue extract
T1 sequence (P67778 2-272 limits assumed): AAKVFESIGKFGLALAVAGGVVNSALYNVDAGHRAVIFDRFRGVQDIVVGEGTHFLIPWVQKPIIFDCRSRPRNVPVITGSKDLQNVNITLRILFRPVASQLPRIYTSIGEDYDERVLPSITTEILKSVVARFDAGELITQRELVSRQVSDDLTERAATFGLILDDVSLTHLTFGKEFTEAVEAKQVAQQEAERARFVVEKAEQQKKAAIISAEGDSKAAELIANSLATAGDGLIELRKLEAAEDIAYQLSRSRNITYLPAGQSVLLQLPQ
Test: Adipose receptor protein binding and immunoprecipitation
Details: data not shown
Description: A band of approximately 35,000 Daltons (35 kDa) was isolated from mouse adipose tissue extract that bound to […] (SEQ ID NO:22) conjugated to (KLAKLAK)2 (SEQ ID NO:1). […] The 35 kDa band was analyzed by mass spectrometry, which identified three proteins present in the sample.
The three proteins included predominately a B cell receptor associated protein (prohibition), apolipoprotein E, and the voltage dependent anion channel (VDAC). Further studies were performed by immunoprecipitation, using either […] (SEQ ID NO:22) or CARAC (SEQ ID NO:12) conjugated to (KLAKAK)2 (SEQ ID NO:1) and precipitating with commercially available antibodies.
It is unknown whether those proteins bound to the CARAC (SEQ ID NO:12) moiety or to (KLAKAK)2 (SEQ ID NO:1).

For `CC(C)C[C@@H](NC(=O)[C@@H](CCCCN)NC(=O)CNC(=O)CNC(=O)[C@@H]1CSSC[C@H](N)C(=O)N[C@@H](CCCCN)C(=O)NCC(=O)NCC(=O)N[C@@H](CCCNC(=N)N)C(=O)N[C@@H](C)C(=O)N[C@@H](CCCCN)C(=O)N[C@@H](CC(=O)O)C(=O)N1)C(=O)N[C@H](C)C(=O)N[C@H](CCCCN)C(=O)N[C@H](CC(C)C)C(=O)N[C@H](C)C(=O)N[C@H](CCCCN)C(=O)N[C@H](CCCCN)C(=O)N[C@H](CC(C)C)C(=O)N[C@H](C)C(=O)N[C@H](CCCCN)C(=O)N[C@H](CC(C)C)C(=O)N[C@H](C)C(=O)N[C@H](CCCCN)C(=O)O` (H-CKGGRAKDCGG[dK][dL][dA][dK][dL][dA][dK][dK][dL][dA][dK][dL][dA][dK]-OH; disulfide 1-9), the “binding of 35 kDa band from mouse adipose tissue extract” value was “bound”.
